From PubChem BioAssay AID540256 (National Center for Advancing Translational Sciences (NCATS), 2011)
About 3,700 (1.2%) of roughly 300,000 compounds were called active. This list was built around the results that the source calls inconclusive (neither active nor inactive); the mix of calls is not that of the screen. Calls come from the whole dose curve; tested in HEK293 cells. Potencies beside an inconclusive call are fits to weak or partial responses and may not hold up.

Assay: qHTS for Inhibitors of binding or entry into cells for Lassa Virus; note: nearly all actives have a fitted effect of over 50% in size
Conditions: Lassa virus pseudotype entry inhibition, cell reporter; activity change, negative = inhibition: at 37.9 µM (top of the series) unless noted
% is set by controls: 0 for no effect and ±100 for the full control effect; potency is the fitted concentration of half-maximal effect.

Compound | activity change, negative = inhibition | Potency
COc1cc(CNc2ccc3[nH]c(=O)[nH]c3c2)cc(Cl)c1OCc1ccc(F)cc1 | inactive: -1.41% [at 46.1 µM] | 
Cc1ccc(NCC(=O)c2ccc([N+](=O)[O-])cc2)cc1 | inactive: -0.851% | 
CN1C(=O)c2ccccc2Sc2ccc(NC(=O)c3ccc(C#N)cc3)cc21 |  | inconclusive: 10 µM [inhibitor, partial curve, poor fit]
CCn1cc([N+](=O)[O-])c(C(=O)N2N=C(c3ccc(O)c(OC)c3)CC2c2ccccc2O)n1 (stereo not drawn) |  | inconclusive: 25.9 µM [inhibitor, single point]
Cc1cc2oc(C(=O)Nc3c(C)n(C)n(-c4ccccc4)c3=O)cc(=O)c2cc1C | inactive: -8.45% [at 46.1 µM] | 
C/C(=N\NC(=O)C1CC1)c1ccc2c(c1)OCCO2 |  | inconclusive: 1.26 µM [inhibitor, single point]
CCN(CC)c1ccc(/C=C(\C#N)C(N)=O)cc1 |  | inconclusive: 35.5 µM [inhibitor, single point]
CCCCNC(=O)c1sc2ncccc2c1-n1cccc1 |  | inconclusive: 22.4 µM [activator, single point]
O=C(CCc1ccccc1)N1CCc2c([nH]c3ccccc23)C1c1ccc(F)cc1 (stereo not drawn) |  | inconclusive: 7.08 µM [inhibitor, full curve, poor fit]
O=C(c1cc2nc(-c3ccc(F)cc3)cc(C(F)(F)F)n2n1)N1CCCCC1c1cccnc1 (stereo not drawn) |  | inconclusive: 8.91 µM [inhibitor, partial curve, poor fit]
CCC(C)n1c(SCC(=O)NC(=O)c2cccn2C)nc2ccccc2c1=O (stereo not drawn) |  | inconclusive: 25.1 µM [inhibitor, single point]
O=C(Nc1ccc(S(=O)(=O)N(Cc2ccccc2)c2ccccc2)cc1)c1ccc(F)cc1 |  | inconclusive: 10 µM [inhibitor, partial curve]
O=C(CCCn1c(=O)c2ccccc2n(Cc2cccc(F)c2)c1=O)NCc1ccccc1Cl | inactive: -13.4% [at 46.1 µM] | 
CS(=O)(=O)n1nc(-c2ccc(Cl)cc2)nc1N | inactive: 16.1% | 
CCN1CCN(CCNC(=O)c2cn(C(C)c3ccccc3F)nn2)CC1 (stereo not drawn) |  | inconclusive: 35.5 µM [activator, partial curve, poor fit]
CCc1ccc(N(CC)C(=O)c2cn(C)c(=O)c3ccccc23)cc1 |  | inconclusive: 35.5 µM [inhibitor, single point]
CC1(C)CC(=O)N(Cc2ccccc2)C(=O)C1 |  | inconclusive: 0.103 µM [inhibitor, full curve, poor fit]
CCc1nnc(NC(=O)C2COc3ccccc3O2)s1 (stereo not drawn) |  | inconclusive: 22.4 µM [inhibitor, single point]
CCN(CC(=O)Nc1c(F)cccc1F)C(=O)CNC(=O)c1cccc(C)c1 |  | inconclusive: 1 µM [inhibitor, full curve, poor fit]
CCOc1cc(CNc2ccc3c(c2)OCCO3)cc(Br)c1OC |  | inconclusive: 0.891 µM [inhibitor, full curve, poor fit]
CN(C)S(=O)(=O)c1cccc(CSCc2cccc(S(=O)(=O)N(C)C)c2)c1 |  | inconclusive: 8.91 µM [inhibitor, full curve, poor fit]
CCSC1(SCC)N=C(N)C2(C#N)C(c3ccc(F)cc3)C12C#N (stereo not drawn) |  | inconclusive: 35.5 µM [inhibitor, partial curve, poor fit]
CCCOc1ccc(-c2cnc(N)s2)cc1 |  | inconclusive: 2.06 µM [activator, partial curve]

Five compounds picked at random from the list so far, as already listed:
Compound | activity change, negative = inhibition | Potency
COc1cc(CNc2ccc3[nH]c(=O)[nH]c3c2)cc(Cl)c1OCc1ccc(F)cc1 | inactive: -1.41% [at 46.1 µM] | 
CCSC1(SCC)N=C(N)C2(C#N)C(c3ccc(F)cc3)C12C#N (stereo not drawn) |  | inconclusive: 35.5 µM [inhibitor, partial curve, poor fit]
CCn1cc([N+](=O)[O-])c(C(=O)N2N=C(c3ccc(O)c(OC)c3)CC2c2ccccc2O)n1 (stereo not drawn) |  | inconclusive: 25.9 µM [inhibitor, single point]
CCN(CC(=O)Nc1c(F)cccc1F)C(=O)CNC(=O)c1cccc(C)c1 |  | inconclusive: 1 µM [inhibitor, full curve, poor fit]
CN1C(=O)c2ccccc2Sc2ccc(NC(=O)c3ccc(C#N)cc3)cc21 |  | inconclusive: 10 µM [inhibitor, partial curve, poor fit]

Following part.

Compound | activity change, negative = inhibition | Potency
Cc1onc(-c2ccc(Cl)cc2Cl)c1-c1csc(N/N=C/c2ccccc2Cl)n1 | inactive: -26.2% [at 46.1 µM] | 
COc1cc(OC)cc(N2C(=O)CSC23C(=O)Nc2ccccc23)c1 (stereo not drawn) |  | inconclusive: 11.2 µM [inhibitor, partial curve]
CSc1ccc(C(=O)C2CCCN(Cc3cnc(SC)nc3)C2)cc1 (stereo not drawn) |  | inconclusive: 12.6 µM [inhibitor, partial curve, poor fit]
CC(C)(C)C(=O)O[C@H]1CC[C@@]2(C)C(=CC(=O)C3C2CC[C@]2(C)C(=O)[C@@H](F)CC32)C1 (stereo partly drawn) |  | inconclusive: 5.62 µM [inhibitor, full curve, poor fit]
Cc1cc(COc2ccccc2OCCN2CCN(C)CC2)no1 | inactive: 17.2% | 
CN(C1CCCCC1)S(=O)(=O)c1ccc(NC(=O)c2ccc(Br)o2)cc1 |  | active: 11.2 µM
O=C(COC(=O)c1ccc2c(c1)OCO2)Nc1ccccc1OC(F)F | inactive: -0.525% | 
O=C(CSc1ncn[nH]1)NCCc1ccc(Cl)cc1 |  | inconclusive: 10 µM [inhibitor, partial curve, poor fit]
Cc1csc2nc(-c3cccc(NC(=O)c4c(F)cccc4F)c3)cn12 | inactive: 3.13% [at 46.1 µM] | 
COc1ccc(CCNc2nc3c(c(=O)n(C)c(=O)n3C)n2Cc2ccccc2Cl)cc1OC |  | inconclusive: 31.6 µM [activator, single point]
CC(C)(C)c1ccc(C(=O)CC(=O)c2cc(Cl)ccc2O)cc1 |  | inconclusive: 23.1 µM [inhibitor, single point]
CCOC(=O)C1=C(N)n2c(s/c(=C\c3ccco3)c2=O)=C(C(=O)OC(C)C)C1c1ccco1 (stereo not drawn) | inactive: -16.5% | 
O=C(Nc1ccc(C(=O)OCc2cc(=O)n3c4c(sc3n2)CCCC4)cc1)c1cccc(F)c1 | inactive: -8.51% [at 46.1 µM] | 
C=CCNCc1cc(=O)n2c(-c3ccccc3)csc2n1 | inactive: 4.49% [at 46.1 µM] | 
Cc1cccc(C(=O)Nc2ccccc2OCc2cc(=O)n3c(C)csc3n2)c1 |  | inconclusive: 31.6 µM [activator, single point]
Cc1ccc2c(=O)cc(C(=O)Nc3nc4ccc(Cl)cc4s3)oc2c1 | inactive: 1.91% [at 46.1 µM] | 
CC1CC(C)CN(C(=O)C(NS(=O)(=O)c2ccc(Br)s2)c2ccccc2)C1 (stereo not drawn) |  | inconclusive: 0.517 µM [inhibitor, partial curve, poor fit]
Cc1cc(NC(=O)c2cccs2)ncc1NC(=O)C(C)C |  | inconclusive: 1 µM [activator, single point]
O=C(CSc1nnc2c3c4c(sc3ncn12)CCCC4)NCc1ccco1 |  | inconclusive: 0.366 µM [inhibitor, partial curve, poor fit]
O=C(CSc1ccc(Br)cc1)Nc1ccccc1N1CCOCC1 |  | inconclusive: 22.4 µM [activator, single point]
Cc1cccc(-c2cc3nc4c(c(N5CCOCC5)n3n2)CCCC4)c1 |  | inconclusive: 0.461 µM [activator, partial curve, poor fit]
C/C(N)=C(/C#N)C(=O)CSc1nc2ccccc2c(=O)n1CCCOC(C)C |  | inconclusive: 1.12 µM [inhibitor, full curve, poor fit]
S=C(Nc1cccc(Cl)c1Cl)N1CCC2(CC1)OCCO2 |  | inconclusive: 15.8 µM [inhibitor, single point]

Compound | activity change, negative = inhibition | Potency
O=C(Nc1ccncc1)c1ccc(S(=O)(=O)Nc2ccccc2)cc1 |  | inconclusive: 11.2 µM [inhibitor, partial curve, poor fit]
CCOc1ccc(C(=O)OCC(=O)Nc2cc(C)on2)cc1OCC | inactive: 2.6% | 
Cc1nn(CC(=O)NC2C(=O)N3C(C(=O)O)=C(CSc4nnnn4C)CSC23)cc1Br (stereo not drawn) | inactive: 16.1% [at 46.1 µM] | 
Nc1nc(=O)n(C2CC(O)C(CO)O2)cc1F (stereo not drawn) |  | inconclusive: 0.251 µM [inhibitor, full curve, poor fit]
COc1ccc(NC(=O)c2ccc(NC(=O)COC(=O)CC(NC(=O)c3ccccc3Cl)c3ccccc3)cc2)cc1 (stereo not drawn) |  | inconclusive: 20.6 µM [activator, partial curve, poor fit]
O=C(/C=C/c1ccco1)Oc1cc(Br)cc(/C=N/NC(=O)c2ccccc2O)c1 |  | active: 11.2 µM
Nc1nc(-c2ccc3c(c2)CCCC3)cs1 |  | inconclusive: 14.1 µM [inhibitor, single point]
O=C(Nc1cccc(S(=O)(=O)NC2=NCCC2)c1)c1ccccc1OC(F)F | inactive: -3.32% | 
OCC1(CCOc2ccccc2)CCN(Cc2ccc(OC(F)F)cc2)CC1 | inactive: -14.5% [at 46.1 µM] | 
O=C(CCc1ccccc1)Nc1nnc(-c2ccccn2)o1 | inactive: 10.2% | 
COC(=O)[C@@]1(C=C2c3ccccc3[C@@H](OC)[C@@H]2C)[C@@H]2Oc3ccccc3[C@@H]21 |  | inconclusive: 0.0944 µM [inhibitor, partial curve, poor fit]
Cc1occc1C(=O)N1N=C(C2CC2)CC1(O)C(F)(F)F (stereo not drawn) |  | inconclusive: 0.708 µM [activator, partial curve, poor fit]
CSCCC(NC(=O)c1ccco1)C(=O)OC(C)C(=O)NC(=O)NC1CCCCC1 (stereo not drawn) |  | inconclusive: 2.91 µM [activator, partial curve]
COc1cccc(NCc2cc(=O)oc3cc(-c4ccccc4)c(O)cc23)c1 | inactive: 1.53% | 
COc1ccc(CCNC(=O)CCn2c(=O)c3ccccc3n(Cc3ccccc3C)c2=O)cc1OC | inactive: -9.53% [at 46.1 µM] | 
Cc1ccc2oc(C(=O)Nc3ccc(S(=O)(=O)Nc4nc(C)cc(C)n4)cc3)cc(=O)c2c1 | inactive: 28% [at 46.1 µM] | 
O=C(CNS(=O)(=O)c1cccs1)N1CCCC1 | inactive: -2.24% | 
Cc1ccc(NC(=O)CCn2cnc3onc(-c4ccc(F)cc4)c3c2=O)c(Br)c1 |  | inconclusive: 6.31 µM [activator, single point]
COc1nc2ccccc2c(=O)n1-c1ccc(Cl)cc1 |  | inconclusive: 6.31 µM [activator, single point]
Cc1cccnc1Nc1nc(-c2ccc(F)cc2)cs1 |  | inconclusive: 35.5 µM [inhibitor, single point]
O=C(NNC(=O)c1ccc2ccccc2c1)c1ccc(Cl)c(Cl)c1 | inactive: -0.187% [at 46.1 µM] | 
Cc1ccc2nc(NC(=O)C3CCN(S(=O)(=O)c4cc([N+](=O)[O-])ccc4Cl)CC3)sc2c1 |  | inconclusive: 35.5 µM [inhibitor, single point]
